Experimental data from patent US4452807A, “(R,S)-1-(3-Hydroxy-4-methoxybenzoyl)-3-hydroxy-2-pyrrolidinone intermediates therefor and use for treating cerebral insufficiency” (Hoffmann-La Roche Inc., priority 1981, dated 1984).

Tested on: short-time memory
Assay: Passive avoidance ("Skinner box") test, reversal of scopolamine-induced blocking of short-time memory
Format: in vivo, rats
Details: scopolamine 0.3 mg/kg intraperitoneally and distilled water orally; during 3-4 hours

## CN1[C@@H]2C[C@@H](OC(=O)[C@H](CO)c3ccccc3)C[C@H]1[C@@H]1O[C@@H]12 [scopolamine]
  animals with retrograde effect on the short-time memory (have forgotten that they must remain on the platform): 85-92%
